Assay results reported in patent US11732029B2, “Methods and compositions for the treatment of wounds” (The University of Chicago, priority 2017, dated 2023).

Tests used:
[1] = Release of rhBMP-2 from collagen matrix (hydrogel); conditions: bovine type I collagen gel, 500 ng/mL rhBMP-2, 120 nM FabCol variant
[2] = Release of GFs from fibrin-mimetic (PEG) matrix; conditions: 10 μM vWF HBD-Cys; over 5 d

Sequence	rhBMP-2 released from collagen hydrogels after 7 days [1] [%]	release of CXCL-12γ from PEG-based synthetic matrix [2]	release of FGF-2 from PEG-based synthetic matrix [2]
GCGGSLRPAPPPISGGGYRARPAKAAATQKKVERKAPDA [FgHBD]	80		
YIGLKDRKRPSELRRIASQVKYAC [vWF HBD]		slow-release	slow-release
